The source of these data is paper PMC6695811, “Protein Phosphatase Ppz1 Is Not Regulated by a Hal3-Like Protein in Plant Pathogen Ustilago maydis” (International Journal of Molecular Sciences, 2019).

Where two headings read alike, the source gives them in different places. These are yes or no findings as the source states them, for the method shown. Binding seen in cells or lysates may run through a third protein. Binding can be weak; no strength is given. For some of these results: Tags and fused reporters may be left off the sequences shown.

What all share (assay): pull-down; GST-tagged phosphatases on glutathione agarose beads (4 ug UmPpz1; 8 ug ScPpz1 or ScPpz1-Cter) incubated with protein extracts of S. cerevisiae IM021 (ppz1 hal3) expressing 3HA-tagged Hal3 versions; beads washed, SDS-PAGE, anti-HA immunoblot; only the target purified
Assay [1] addresses GST-tagged Ustilago maydis Ppz1 (GST-UmPpz1) (Ustilago maydis).
Assay [2] addresses T1, GST-tagged S. cerevisiae Ppz1 (GST-ScPpz1) (S. cerevisiae) (UniProt P26570).
T1 sequence: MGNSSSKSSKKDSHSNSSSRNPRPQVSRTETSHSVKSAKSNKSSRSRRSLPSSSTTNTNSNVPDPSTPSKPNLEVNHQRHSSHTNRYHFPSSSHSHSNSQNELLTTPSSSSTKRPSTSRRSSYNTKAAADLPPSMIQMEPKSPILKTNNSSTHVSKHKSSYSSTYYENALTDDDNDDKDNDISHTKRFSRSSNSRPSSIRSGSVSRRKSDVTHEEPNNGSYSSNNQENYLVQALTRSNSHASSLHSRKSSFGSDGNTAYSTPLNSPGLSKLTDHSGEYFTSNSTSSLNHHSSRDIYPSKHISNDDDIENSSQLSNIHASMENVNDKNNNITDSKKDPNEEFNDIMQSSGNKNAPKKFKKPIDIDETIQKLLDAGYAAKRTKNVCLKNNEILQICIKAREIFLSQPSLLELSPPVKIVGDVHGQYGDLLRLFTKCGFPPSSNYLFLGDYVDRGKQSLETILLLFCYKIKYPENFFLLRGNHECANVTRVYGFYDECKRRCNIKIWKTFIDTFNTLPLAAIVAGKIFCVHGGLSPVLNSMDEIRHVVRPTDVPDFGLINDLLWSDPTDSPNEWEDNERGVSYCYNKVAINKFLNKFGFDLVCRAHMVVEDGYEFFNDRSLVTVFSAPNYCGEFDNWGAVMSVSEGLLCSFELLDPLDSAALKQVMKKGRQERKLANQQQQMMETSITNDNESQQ

The target in assay [3] is GST-tagged Ustilago maydis Ppz1 (GST-UmPpz1) (Ustilago maydis). This is another data set of the same source.

As to “3xHA-tagged full-length Ustilago maydis Hal3 (UmHal3) (from UniProt A0A0D1DP09)”, the binding result in assay [1] and in assay [2] was “binds weakly” each time.

“3xHA-tagged PPCDC domain of Ustilago maydis Hal3 (UmHal3_PD) (domain or fragment)”: the binding entry in assay [2] was “binds weakly”.

B1: 3xHA-tagged S. cerevisiae Hal3 (ScHal3) (protein, UniProt P36024 1-562)
chain: MTAVASTSGKQDADHNQSIECPRFSRGQKEILLDHEDAKGKDSIINSPVSGRQSISPTLSNATTTTTKSIMNATGTSGAVVSNTPEPGLKRVPAVTFSDLKQQQKQDSLTQLKNDSERTKSPNSNPAPVSNSIPGNHAVIPNHTNTSRTTQLSGSPLVNEMKDYDPKKKDSALKIVDTMKPDKIMATSTPISRENNKVTAKAPTSITLRKEDAQDQANNVSGQINVRSTPEETPVKQSVIPSIIPKRENSKNLDPRLPQDDGKLHVLFGATGSLSVFKIKPMIKKLEEIYGRDRISIQVILTQSATQFFEQRYTKKIIKSSEKLNKMSQYESTPATPVTPTPGQCNMAQVVELPPHIQLWTDQDEWDAWKQRTDPVLHIELRRWADILVVAPLTANTLSKIALGLCDNLLTSVIRAWNPSYPILLAPSMVSSTFNSMMTKKQLQTIKEEMSWVTVFKPSEKVMDINGDIGLGGMMDWNEIVNKIVMKLGGYPKNNEEEDDDEDEEEDDDEEEDTEDKNENNNDDDDDDDDDDDDDDDDDDDDDDDDEDEDEAETPGIIDKHQ
For B1, in assay [3], the binding entry is “binds”.
